Results from PubChem BioAssay AID720504 (National Center for Advancing Translational Sciences (NCATS), 2013).
In all, about 360,000 compounds went through this assay and about 10,000 (2.8%) were called active. The inconclusive results got no clear call from the source; some entries with a clear call stand among them for comparison. Calls come from the whole dose curve; as a rule, active = well fitted inhibition curve with a large enough effect; inconclusive = small, poorly fitted or top-dose-only effect; inactive = flat fitted curve, though single readings scatter. A potency beside an inconclusive call is a rough fit, not a confirmed value.

The chains behind the UniProt entries cited, without tags or fusion partners.
UniProt P53350, whole entry, looked up: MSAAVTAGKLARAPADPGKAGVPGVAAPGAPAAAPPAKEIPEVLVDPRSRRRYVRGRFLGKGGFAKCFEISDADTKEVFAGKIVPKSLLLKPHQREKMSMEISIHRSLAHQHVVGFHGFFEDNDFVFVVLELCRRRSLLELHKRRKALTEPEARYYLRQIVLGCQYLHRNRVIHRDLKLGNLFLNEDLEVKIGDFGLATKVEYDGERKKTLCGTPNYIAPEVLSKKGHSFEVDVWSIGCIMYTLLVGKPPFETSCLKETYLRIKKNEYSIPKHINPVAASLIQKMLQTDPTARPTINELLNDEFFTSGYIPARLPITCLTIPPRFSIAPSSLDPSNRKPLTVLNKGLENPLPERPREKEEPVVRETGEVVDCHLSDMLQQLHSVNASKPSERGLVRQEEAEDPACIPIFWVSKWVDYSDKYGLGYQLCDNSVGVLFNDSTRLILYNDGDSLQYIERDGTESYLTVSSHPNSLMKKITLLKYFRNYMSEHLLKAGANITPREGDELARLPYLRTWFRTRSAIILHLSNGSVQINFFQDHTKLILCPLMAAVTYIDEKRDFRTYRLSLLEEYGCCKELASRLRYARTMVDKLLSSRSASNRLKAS

Target: Serine/threonine-protein kinase PLK1 (Homo sapiens) (UniProt P53350)
Experiment: qHTS for Inhibitors of PLK1-PDB (polo-like kinase 1 - polo-box domain): Primary Screen; note: nearly all actives have a fitted effect of over 65% in size; for max response, negative = inhibition: series mostly up to about 57 µM
Details: Plk1 PBD binding of FITC phosphopeptide, fluorescence polarization
% is set by controls: 0 for no effect and ±100 for the full control effect; potency is the fitted concentration of half-maximal effect.

Compound | Potency | max response, negative = inhibition
COc1ccc2c(c1)-c1nc(/N=C/c3c(O)ccc4ccccc34)sc1CC2 | inconclusive: 23.8 µM [inhibitor, single point] | –
COc1ccc(CC(=O)NCCc2ccc(Cl)cc2Cl)cc1 | inconclusive: 23.8 µM [inhibitor, single point] | –
CCC(=O)N(Cc1cc(=O)[nH]c2ccccc12)c1ccccc1OC | inconclusive: 29.9 µM [inhibitor, single point] | –
CCOC(=O)N1CCN(C(=O)CSCC(=O)Nc2nc(-c3ccc(-c4ccccc4)cc3)cs2)CC1 | – | inactive: -0.924%
O=C(NCc1nc2ccccc2[nH]1)C1=C[C@H](C2CCCCC2)C[C@H](OCCCCO)O1 | – | inactive: 3.06%
CCOC(=O)c1cc2occc2n1CC(=O)Nc1ccc(OC)cc1OC | inconclusive: 29.9 µM [inhibitor, single point] | –
CCOC(=O)C1(CCc2ccccc2)CCN(Cc2ccc(OC)cc2)CC1 | – | inactive: -7.45%
O=C1NC(=S)SC1=Cc1ccc(Cl)cc1 | inconclusive: 26.7 µM [inhibitor, single point] | –
O=C(NCc1ccco1)c1cc2c(s1)CCCCC2 | – | inactive: -19.2%
COc1cc(C(=S)N2CCOCC2)cc(OC)c1OS(=O)(=O)c1ccc(C)cc1 | inconclusive: 18.9 µM [inhibitor, partial curve] | –
COc1ccc(N2CCN(C(=O)c3ccc(N(C)S(=O)(=O)c4ccc(OC)cc4)cc3)CC2)cc1 | active: 13.4 µM | –
CC(C)c1ccc(CCNC(=O)CSC(=S)N2CCCC2)cc1 | active: 26.7 µM | –
Cc1[nH]n(C(N)=S)c(=O)c1N=Nc1ccccc1C(F)(F)F | active: 23.8 µM | –
CC(=O)NNc1nc(-c2ccccc2)c2cc(Br)ccc2n1 | – | inactive: -17.6%
CCOc1ccc(/C=C2/SC(=S)N(CCC(=O)Nc3ccc(C(=O)O)cc3)C2=O)cc1 | inconclusive: 37.7 µM [inhibitor, single point] | –
COc1ccccc1NC(=O)c1c[nH]c2ccccc12 | – | inactive: 2.37%
CC1(C(=O)NCCN2CCOCC2)C=CCN1C(=O)c1ccccc1 (stereo not drawn) | inconclusive: 33.6 µM [inhibitor, single point] | –
O=C(O)CCN=CC1=C(O)CC(c2ccccc2)CC1=O (stereo not drawn) | – | inactive: -5.7%
O=C(COc1ccccc1)Nc1cc(NC(=O)COc2ccccc2)cc(C(=O)O)c1 | inconclusive: 37.7 µM [inhibitor, single point] | –
CN(C1CCCCC1)S(=O)(=O)Cc1ccccc1 | inconclusive: 26.7 µM [inhibitor, partial curve] | –
Cc1ccc(NC(=O)CN2C(=O)S/C(=C/c3ccc(O)c([N+](=O)[O-])c3)C2=O)cc1C | active: 21.2 µM | –
CN(CC(=O)Nc1sc2c(c1C#N)CCCCC2)Cc1nc2ccccc2c(=O)[nH]1 | inconclusive: 23.8 µM [inhibitor, single point] | –
Cc1c(Cl)ccc2c(C(=O)O)cc(-c3ccccc3)nc12 | active: 23.8 µM | –
CCN(CCCNC(=O)c1ccc2c(c1)NC(=O)CN2C)c1cccc(C)c1 | inconclusive: 29.9 µM [inhibitor, single point] | –
O=C(O)c1ccc(NC(=O)c2cn(-c3ccccc3)nc2-c2ccc(Cl)cc2)cc1 | active: 26.7 µM | –

Compound | Potency | max response, negative = inhibition
C=CCCC(=O)Nc1nc(C)c(-c2csc(Nc3ccccc3OC)n2)s1 | – | inactive: -6.1%
CCSc1nnc2ccc(-c3ccc(OC)c(OC)c3)nn12 | active: 21.2 µM | –
Cc1ccc(CSc2nnc(SCC(=O)N/N=C/c3ccc(C(=O)O)cc3)s2)cc1 | inconclusive: 75.2 µM [inhibitor, single point] | –
c1ccc(C2=NNC(=NCc3ccc4c(c3)OCO4)SC2)cc1 | inconclusive: 18.9 µM [inhibitor, single point] | –
CN(C)C(=O)N1CCN(c2nc(-c3ccccc3)cs2)CC1 | – | inactive: -13.3%
COc1ccccc1NS(=O)(=O)c1c(C(=O)N2CCCC2)c(C)n(C)c1C | inconclusive: 21.2 µM [inhibitor, single point] | –
COc1ccc(CCn2c(=S)[nH]c3ccc(N4CCOCC4)cc3c2=O)cc1OC | inconclusive: 8.44 µM [inhibitor, partial curve] | –
CCS(=O)(=O)CCSc1nc2ccccc2s1 | inconclusive: 26.7 µM [inhibitor, partial curve] | –
Cc1cc2c(c(SCC(N)=O)n1)C(=O)OC2 | active: 29.9 µM | –
CCCC(=O)Nc1nc(C)c(-c2csc(Nc3ccccc3C)n2)s1 | inconclusive: 23.8 µM [inhibitor, single point] | –
COC(=O)C1=C(Nc2ccccc2NS(=O)(=O)c2ccc(C(F)(F)F)cc2Cl)CSC1 | inconclusive: 21.2 µM [inhibitor, partial curve] | –
CC(C)(C)NCC(O)COc1cccc2c1CCC(=O)N2 (stereo not drawn) | – | inactive: 1.16%
O=S(=O)(Nc1cccnc1)c1ccc(F)cc1 | – | inactive: -5.33%
COC(=O)[C@H]1C[C@@]2(O)CN(S(=O)(=O)c3ccc(C)cc3)C[C@@]2(OC(=O)NCc2ccc(OC)c(OC)c2)C[C@H]1C(=O)OC | inconclusive: 33.6 µM [inhibitor, partial curve, poor fit] | –
COc1ccc(C(=O)Nc2ccccc2C(=O)N/N=C/c2ccccc2OC)cc1 | inconclusive: 23.8 µM [inhibitor, single point] | –
Cc1cc(C)c(NC(=O)Cn2nnc(C(=O)NCc3ccc4c(c3)OCO4)c2N)c(C)c1 | inconclusive: 33.6 µM [inhibitor, partial curve] | –
CC1CCN(CC(=O)NCc2ccco2)CC1 | – | inconclusive: -36.2% [inhibitor]
CC1=NN(c2ccccc2)C(=O)/C1=C\c1sccc1C | active: 10.6 µM | –
O=S(=O)(c1ccccc1)C(Br)S(=O)(=O)c1ccccc1 | – | inactive: -8.12%
C=CCn1c(SCC(=O)NCCCC)nc2scc(-c3ccco3)c2c1=O | inconclusive: 29.9 µM [inhibitor, partial curve] | –
CCc1c(C)sc(NC(=O)c2ccccc2[N+](=O)[O-])c1C(N)=O | inconclusive: 7.52 µM [inhibitor, full curve] | –
O/C(=C\c1ccc2ccccc2n1)c1ccncc1 | – | inactive: 0.0676%
COc1cc(/C=C2/NC(=O)N(CC(=O)Nc3cccc(C)c3)C2=O)ccc1OCC(N)=O | active: 26.7 µM | –
CCN(c1cccc2ccccc12)S(=O)(=O)c1cccs1 | inconclusive: 37.7 µM [inhibitor, single point] | –
NCCCC[C@@H](C(=O)N1CCNCC1)n1cc([C@@H](N)CC(N)=O)nn1 | – | inactive: -10.3%

Individual results from above.
Potency, CCOC(=O)c1cc2occc2n1CC(=O)Nc1ccc(OC)cc1OC is entered as inconclusive: 29.9 µM [inhibitor, single point]
Potency, COc1ccc(CC(=O)NCCc2ccc(Cl)cc2Cl)cc1 is entered as inconclusive: 23.8 µM [inhibitor, single point]
max response, negative = inhibition, O=C(O)CCN=CC1=C(O)CC(c2ccccc2)CC1=O (stereo not drawn) is entered as inactive: -5.7%
max response, negative = inhibition, O/C(=C\c1ccc2ccccc2n1)c1ccncc1 is entered as inactive: 0.0676%
max response, negative = inhibition, O=C(NCc1ccco1)c1cc2c(s1)CCCCC2 is entered as inactive: -19.2%

Following part

Compound | Potency | max response, negative = inhibition
CC(C)c1ccc(-c2csc(NC(=O)c3cccs3)c2C(=O)O)cc1 | active: 33.6 µM | –
O=C(c1cc(Br)ccc1Cl)N1CCN(c2ncccn2)CC1 | active: 29.9 µM | –
CCOC(=O)C1=NNC(C(=O)OCC)C1c1ccccc1 (stereo not drawn) | – | inactive: -7.77%
O=C(COc1ccc(Cl)cc1)N1CCN(c2cccc(C(F)(F)F)c2)CC1 | active: 18.9 µM | –
O=C(Nc1nc(-c2ccccn2)cs1)C1CCCC1 | inconclusive: 26.7 µM [inhibitor, partial curve] | –
CON(c1nc(Cl)nc(N(C)C)n1)S(=O)(=O)c1ccccc1Cl | – | inactive: -8.68%
c1ccc(COn2nnc3ccccc32)c(COn2nnc3ccccc32)c1 | inconclusive: 37.7 µM [inhibitor, single point] | –
COc1ccc(NC(=S)Nc2ccc3nsnc3c2)cc1 | active: 13.4 µM | –
COc1ccc(OC)c(C(O)c2ncc(-c3ccccc3OC)[nH]2)c1 (stereo not drawn) | – | inactive: -1.59%
COCCN1C(=O)N[C@@H](c2cccs2)C(C(C)=O)=C1C | – | inactive: 4.64%
C[C@@H]1CN([C@H](C)CO)C(=O)CCCn2cc(nn2)CO[C@H]1CN(C)C(=O)Nc1ccc(C(C)(C)C)cc1 | – | inconclusive: -31.9% [inhibitor]
c1ccc2c(c1)OCC(c1nn3c(Cn4nnc5ccccc54)nnc3s1)O2 (stereo not drawn) | active: 23.8 µM | –
O=C(NNc1cccc(Cl)n1)c1ccccc1CC[N+](=O)[O-] | inconclusive: 37.7 µM [inhibitor, single point] | –
Cc1ccc(-n2c(O)c(/C=N/Nc3ccc(S(=O)(=O)N4CCOCC4)cc3[N+](=O)[O-])c3ccccc3c2=O)c(C)c1 | inconclusive: 16.8 µM [inhibitor, partial curve] | –
O=C(NNS(=O)(=O)c1ccc([N+](=O)[O-])cc1)C(=O)Nc1cccc(C(=O)O)c1 | inconclusive: 21.2 µM [inhibitor, partial curve] | –
Cc1ccc(CN(C(=O)c2csnn2)C(C(=O)NC2CCCC2)c2cccnc2)cc1 (stereo not drawn) | – | inactive: -0.243%
CN1C(=O)NC(c2ccccc2)C2=C1CN(c1cccc(C(F)(F)F)c1)C2=O (stereo not drawn) | – | inconclusive: -36.8% [inhibitor]
COCc1nnc(NC(=O)CCC2CCCCC2)s1 | inconclusive: 35.5 µM [inhibitor, single point] | –
O=C(Nc1ccc2nc(-c3ccco3)c(-c3ccco3)nc2c1)N1CCN(c2ccccn2)CC1 | active: 5.32 µM | –
Cc1nc2ccccc2n1C1CCN(CC(=O)Nc2ccccc2Br)CC1 | – | inactive: -14.2%
COc1ccc(C2(c3ccc(OC)cc3)NC(=O)N(Cn3nnc4ccccc4c3=O)C2=O)cc1 | inconclusive: 8.44 µM [inhibitor, single point] | –
COc1ccc(NC(=O)NCc2ccco2)c(OC)c1 | active: 11.9 µM | –
Brc1cccc(C2Nc3cccc4cccc(c34)N2)c1 | inconclusive: 29.9 µM [inhibitor, partial curve] | –
